This is an account of results in publication PMC9170685.

The chains behind the UniProt entries cited, without tags or fusion partners.
UniProt Q13546: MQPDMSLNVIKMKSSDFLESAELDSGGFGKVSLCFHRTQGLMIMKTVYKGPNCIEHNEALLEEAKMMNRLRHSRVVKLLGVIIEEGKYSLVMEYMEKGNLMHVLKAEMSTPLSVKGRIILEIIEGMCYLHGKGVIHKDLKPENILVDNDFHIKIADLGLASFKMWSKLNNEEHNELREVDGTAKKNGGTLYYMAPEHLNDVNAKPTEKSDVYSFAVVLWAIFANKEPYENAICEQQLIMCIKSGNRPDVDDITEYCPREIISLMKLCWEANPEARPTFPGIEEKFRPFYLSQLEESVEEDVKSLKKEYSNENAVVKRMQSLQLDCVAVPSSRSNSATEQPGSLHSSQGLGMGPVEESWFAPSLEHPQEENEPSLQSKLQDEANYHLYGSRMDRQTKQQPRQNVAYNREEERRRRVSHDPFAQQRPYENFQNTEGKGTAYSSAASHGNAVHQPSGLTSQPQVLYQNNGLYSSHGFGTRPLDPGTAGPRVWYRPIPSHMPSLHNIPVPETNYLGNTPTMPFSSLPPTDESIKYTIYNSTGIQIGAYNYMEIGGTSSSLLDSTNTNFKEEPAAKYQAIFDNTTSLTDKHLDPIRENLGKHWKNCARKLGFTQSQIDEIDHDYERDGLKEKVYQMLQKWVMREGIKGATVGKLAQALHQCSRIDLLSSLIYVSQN
UniProt Q9Y572: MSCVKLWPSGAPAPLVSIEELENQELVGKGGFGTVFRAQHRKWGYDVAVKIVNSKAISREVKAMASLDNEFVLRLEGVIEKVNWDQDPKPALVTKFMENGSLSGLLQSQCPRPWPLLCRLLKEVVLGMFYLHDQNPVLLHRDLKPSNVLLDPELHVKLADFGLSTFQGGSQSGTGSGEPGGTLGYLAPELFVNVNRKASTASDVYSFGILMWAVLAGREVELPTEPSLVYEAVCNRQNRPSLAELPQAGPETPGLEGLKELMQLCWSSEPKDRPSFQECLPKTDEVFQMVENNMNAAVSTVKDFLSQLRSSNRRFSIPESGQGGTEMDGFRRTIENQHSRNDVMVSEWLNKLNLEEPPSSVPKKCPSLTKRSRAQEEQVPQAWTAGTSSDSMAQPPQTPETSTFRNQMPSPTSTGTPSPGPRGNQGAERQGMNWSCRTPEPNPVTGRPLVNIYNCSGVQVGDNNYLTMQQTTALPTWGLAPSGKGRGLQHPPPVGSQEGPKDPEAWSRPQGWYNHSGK

Results are given in words; binding and its absence hold for the method and conditions named. In cells and extracts the contact can be indirect. Some binding calls cover weakened binding; strength is not graded here.

For assay [1], the target named is Receptor-interacting protein kinase 1 (RIPK1) (human (endogenous in BEAS-2B)) (UniProt Q13546). Kind of assay: proximity ligation; BEAS-2B cells treated with LPS-exo or PBS-exo, fixed; Duolink kit with anti-RIP1 and anti-RIP3 antibodies.
For assay [2] the target is unchanged. As to the kind of experiment: co-IP; lysates of LPS-treated BEAS-2B cells cocultured with exosomes of LPS-stimulated BMDMs (LPS-exo) over time; precipitating antibody not told.

As for “Receptor-interacting protein kinase 3 (RIPK3) (from UniProt Q9Y572 1-518)”, the binding result in assay [1] and in assay [2] was “binds” throughout.
